From patent publication US8034602B2 (priority 2006, dated 2011)
Where two headings read alike, the source gives them in different places. For at least one compound, name, drawing or mass did not settle the structure.

Experiments:
[1] = system: Corynebacterium glutamicum CJR0500; test: Comparison of resistance to canavanine, arginine hydroxamate and alpha-aminobutyric acid (growth on supplemented minimal medium); format: cell-based; conditions: strain CJR0500
[2] = system: KFCC-10659; format: cell-based, Corynebacterium glutamicum; conditions: strain KFCC-10659

NC(N)=NCCC[C@H](N)C(=O)NO [Arginine hydroxamate, arginine hydroxamate]
Growth (resistance) grade ([1]; Arginine hydroxamate 300 mg/L): +++ | Growth (resistance) grade ([1]; Arginine hydroxamate 500 mg/L): ++ | Growth (resistance) grade ([1]; Arginine hydroxamate 800 mg/L): − | Growth (resistance) grade ([2]; Arginine hydroxamate 300 mg/L): − | Growth (resistance) grade ([2]; Arginine hydroxamate 500 mg/L): − | Growth (resistance) grade ([2]; Arginine hydroxamate 800 mg/L): −
